Record: PubChem BioAssay AID743454 (Peter MacCallum Cancer Centre, 2014)
Test: 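Genes whose loss kills vorinostat-resistant colon cancer cells under vorinostat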 (primary screen). Cell system: human HCT116-VR colon cancer cells, selected for vorinostat resistance. Knock-down reagent: siRNA pool against human genes, 40 nM siRNA pool. Duration: vorinostat for 24 h, read-out about 72 h after transfection. Challenge: vorinostat at 2.5 µM final. Detection: 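Two measures, CellTiter-Fluor viability and luminescent caspase 3/7 activity, each as fold change against same-plate mock wells, mean of duplicates, then screen-wide robust z-score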. Direction: viability robust z-score: higher = more viable cells than screen typical; caspase robust z-score: higher = more caspase 3/7 activity than screen typical. Active means: 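Hits are knock-downs in viability class RV1/RV2 or caspase class CA1/CA2, excluding ones that killed cells in the no-drug cell-count arm; hits then retested with single siRNAs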.
This is a random part of about 18,000 deposited reagents. In the full data, 450 (2.5%) are marked active. 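Single biological run; no consistent viability z cut-off exists, so the class columns, not z-scores, define the calls.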

| gene | viability hit class | caspase hit class | viability robust z-score | caspase robust z-score | outcome |
| --- | --- | --- | --- | --- | --- |
| DNAAF6 | no change | no change | -1.64 | 3.77 | inactive |
| ENTPD3 | no change | no change | -1.12 | 2.7 | inactive |
| ANXA8L1 | no change | no change | 0.87 | -0.15 | inactive |
| TAOK2 | no change | no change | -0.08 | 0.27 | inactive |
| CD320 | no change | no change | -0.33 | 2.35 | inactive |
| ITM2C | no change | no change | -0.98 | 3.98 | inactive |
| SP5 | no change | no change | 0.53 | -0.48 | inactive |
| NUTF2 | no change | no change | -4.03 | 3.74 | inactive |
| ING4 | no change | no change | -0.68 | -0.2 | inactive |
| PKM | no change | no change | 0.15 | 1.6 | inactive |
| HECTD3 | no change | no change | -0.06 | 0.1 | inactive |
| YLPM1 | no change | no change | 0.99 | -0.73 | inactive |
| UGT1A5 | no change | no change | 1.07 | -0.36 | inactive |
| FKTN | no change | no change | 0.99 | -0.08 | inactive |
| FBN1 | no change | no change | 0.55 | -0.66 | inactive |
| AGRN | no change | no change | -0.26 | 2.06 | inactive |
| SCGB1D4 | no change | no change | 0.92 | -0.36 | inactive |
| IQCF2 | no change | no change | 0.04 | 3.58 | inactive |
| TPCN1 | no change | no change | -0.9 | -0.7 | inactive |
| ATOH1 | no change | no change | 1.31 | -0.51 | inactive |
| PTPRO | no change | no change | 0.56 | -1.19 | inactive |
| IKZF3 | no change | no change | 0.84 | -0.66 | inactive |
| RASA3 | no change | no change | -0.35 | -0.2 | inactive |
| INO80C | no change | no change | -1.1 | -0.18 | inactive |
| PJA1 | no change | no change | 1.4 | -0.63 | inactive |
| RAB28 | no change | no change | -0.46 | -0.41 | inactive |
| HEATR3 | no change | no change | -1.05 | -0.56 | inactive |

8 entries from above, arranged by “caspase robust z-score”, lowest first.
| gene | viability hit class | caspase hit class | viability robust z-score | caspase robust z-score | outcome |
| --- | --- | --- | --- | --- | --- |
| YLPM1 | no change | no change | 0.99 | -0.73 | inactive |
| TPCN1 | no change | no change | -0.9 | -0.7 | inactive |
| FBN1 | no change | no change | 0.55 | -0.66 | inactive |
| UGT1A5 | no change | no change | 1.07 | -0.36 | inactive |
| SCGB1D4 | no change | no change | 0.92 | -0.36 | inactive |
| FKTN | no change | no change | 0.99 | -0.08 | inactive |
| AGRN | no change | no change | -0.26 | 2.06 | inactive |
| IQCF2 | no change | no change | 0.04 | 3.58 | inactive |

More entries follow.
| gene | viability hit class | caspase hit class | viability robust z-score | caspase robust z-score | outcome |
| --- | --- | --- | --- | --- | --- |
| BRF2 | no change | no change | 0.62 | 0.28 | inactive |
| SH2D3C | no change | no change | -1.45 | 2.11 | inactive |
| SLC16A12 | no change | no change | 0.45 | 0.78 | inactive |
| PTPRH | no change | no change | -0.99 | -0.64 | inactive |
| OR12D3 | no change | no change | -0.66 | -1.36 | inactive |
| TNP2 | no change | no change | -0.12 | -0.02 | inactive |
| GUCD1 | no change | no change | 0.73 | 0.24 | inactive |
| RXFP2 | no change | no change | 1.11 | -0.44 | inactive |
| STBD1 | no change | no change | -0.5 | -0.72 | inactive |
| BRD1 | no change | no change | 0.98 | 0.18 | inactive |
| MMD | no change | no change | -0.1 | -0.71 | inactive |
| BTG2 | no change | no change | 0.66 | 0.23 | inactive |
| HAUS6 | no change | no change | -1.1 | 0.92 | inactive |
| CLEC4D | no change | no change | -0.32 | -0.04 | inactive |
| KLHL12 | no change | no change | 0.76 | -0.66 | inactive |
| SETMAR | no change | no change | 0.98 | -0.71 | inactive |
| SPC24 | no change | no change | -1.15 | 4.03 | inactive |
| MOK | no change | no change | 0.55 | 2.19 | inactive |
| ZNF575 | no change | no change | 0.34 | -0.2 | inactive |
| LDHAL6A | no change | no change | -0.87 | -1.19 | inactive |
| MRGPRX1 | no change | no change | 0.72 | -0.68 | inactive |
| KRT1 | no change | no change | 0.44 | -0.6 | inactive |
| HOGA1 | no change | no change | -1.52 | 2.06 | inactive |
| FZD3 | no change | no change | -0.96 | -0.77 | inactive |
| RSPO4 | no change | no change | -0.92 | -0.8 | inactive |
| ZNHIT1 | no change | no change | -0.89 | -0.44 | inactive |
| ZNF460 | no change | no change | -0.38 | 0.26 | inactive |
| CFAP52 | no change | no change | -0.42 | 1.58 | inactive |
| UFSP2 | no change | no change | 0.24 | -0.39 | inactive |
| FGF21 | no change | no change | -0.08 | 0.01 | inactive |
